Measured values: the supplement of paper PMC6411743
± gives the standard deviation of the averaged measurements. The list shows a part of the results, in another mix than the full data.

Experiments:
Experiment in all cases: NP40-soluble protein abundance relative to vehicle (solubility fold change) (ratio); higher = more soluble protein in presence of AMP-PNP
[1] = molecular target: T1, A0A087X117|A0A0G2JN29|Q15155 (UniProt Q15155)
T1 sequence (whole entry): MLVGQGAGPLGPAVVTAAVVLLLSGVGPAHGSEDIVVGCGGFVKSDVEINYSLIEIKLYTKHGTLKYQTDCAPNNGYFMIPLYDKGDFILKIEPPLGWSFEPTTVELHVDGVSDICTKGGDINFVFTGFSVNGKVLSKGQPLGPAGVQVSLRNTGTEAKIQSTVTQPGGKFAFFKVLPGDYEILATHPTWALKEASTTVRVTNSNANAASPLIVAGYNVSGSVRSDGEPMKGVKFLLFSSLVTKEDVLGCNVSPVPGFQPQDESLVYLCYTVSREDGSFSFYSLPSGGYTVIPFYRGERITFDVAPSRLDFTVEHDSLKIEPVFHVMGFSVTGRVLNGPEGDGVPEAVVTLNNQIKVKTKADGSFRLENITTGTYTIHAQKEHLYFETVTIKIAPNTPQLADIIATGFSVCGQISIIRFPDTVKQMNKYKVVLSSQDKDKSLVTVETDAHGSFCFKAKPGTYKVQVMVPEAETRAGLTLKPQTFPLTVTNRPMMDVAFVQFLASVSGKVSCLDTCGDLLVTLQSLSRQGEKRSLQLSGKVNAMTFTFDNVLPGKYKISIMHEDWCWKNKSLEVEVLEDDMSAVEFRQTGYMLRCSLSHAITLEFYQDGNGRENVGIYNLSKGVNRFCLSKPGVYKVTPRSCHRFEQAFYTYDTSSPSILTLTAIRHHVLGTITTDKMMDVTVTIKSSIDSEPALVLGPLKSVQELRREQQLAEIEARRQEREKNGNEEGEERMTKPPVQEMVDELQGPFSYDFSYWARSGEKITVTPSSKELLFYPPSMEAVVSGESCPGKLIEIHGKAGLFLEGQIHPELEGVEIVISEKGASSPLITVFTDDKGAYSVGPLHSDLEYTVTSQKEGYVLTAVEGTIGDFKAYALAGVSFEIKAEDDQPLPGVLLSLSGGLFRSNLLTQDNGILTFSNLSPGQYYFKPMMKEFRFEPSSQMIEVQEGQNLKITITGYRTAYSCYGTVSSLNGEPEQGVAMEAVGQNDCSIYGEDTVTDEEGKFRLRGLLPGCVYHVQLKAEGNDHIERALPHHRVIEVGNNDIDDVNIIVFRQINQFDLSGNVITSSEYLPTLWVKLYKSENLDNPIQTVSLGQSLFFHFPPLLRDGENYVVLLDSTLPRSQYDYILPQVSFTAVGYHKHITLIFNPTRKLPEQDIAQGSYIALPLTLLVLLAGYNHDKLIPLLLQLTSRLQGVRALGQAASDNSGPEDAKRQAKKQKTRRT
How it was run: (§1)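 Eight concentrations, 0.1 to 10 mM, were tested on Jurkat crude lysate for 10 min at room temperature and then 3 min at 37 °C, in three independent experiments. The lysate was solubilised with 0.8% NP40 and benzonase, ultracentrifuged, and the supernatant TMT-labelled for LC-MS/MS. Each value is the fold change against the detergent-processed vehicle in its own replicate, from vsn-normalised intensities.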

[2] = molecular target: T2, A0A087X142|A6NFQ9 and related entries (UniProt Q92599)
T2 sequence (whole entry): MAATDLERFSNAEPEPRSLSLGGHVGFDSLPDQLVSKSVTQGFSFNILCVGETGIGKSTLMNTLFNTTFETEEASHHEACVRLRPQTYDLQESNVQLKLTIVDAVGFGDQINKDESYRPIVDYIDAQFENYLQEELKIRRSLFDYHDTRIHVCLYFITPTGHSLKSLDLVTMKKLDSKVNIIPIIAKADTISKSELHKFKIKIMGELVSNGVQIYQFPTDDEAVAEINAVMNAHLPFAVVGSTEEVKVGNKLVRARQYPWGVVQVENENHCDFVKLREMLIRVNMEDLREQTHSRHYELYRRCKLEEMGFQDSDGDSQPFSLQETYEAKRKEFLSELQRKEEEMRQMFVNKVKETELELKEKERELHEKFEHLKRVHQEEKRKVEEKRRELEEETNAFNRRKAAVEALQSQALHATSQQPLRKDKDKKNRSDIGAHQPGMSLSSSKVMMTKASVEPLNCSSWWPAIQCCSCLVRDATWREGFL
How it was run: as §1

[3] = molecular target: T3, A0A087X1S7|P09326 (UniProt P09326)
T3 sequence (whole entry): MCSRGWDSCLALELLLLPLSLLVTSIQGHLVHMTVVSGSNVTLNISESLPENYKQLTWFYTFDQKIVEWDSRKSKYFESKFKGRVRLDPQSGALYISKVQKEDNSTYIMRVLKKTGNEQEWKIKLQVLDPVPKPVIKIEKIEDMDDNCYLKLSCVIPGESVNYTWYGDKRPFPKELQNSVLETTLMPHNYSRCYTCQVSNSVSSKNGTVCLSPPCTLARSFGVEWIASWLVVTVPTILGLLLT
How it was run: as §1

[4] = molecular target: T4, A0A088AWN8|Q9UHQ1 and related entries (UniProt Q9UHQ1)
T4 sequence (whole entry): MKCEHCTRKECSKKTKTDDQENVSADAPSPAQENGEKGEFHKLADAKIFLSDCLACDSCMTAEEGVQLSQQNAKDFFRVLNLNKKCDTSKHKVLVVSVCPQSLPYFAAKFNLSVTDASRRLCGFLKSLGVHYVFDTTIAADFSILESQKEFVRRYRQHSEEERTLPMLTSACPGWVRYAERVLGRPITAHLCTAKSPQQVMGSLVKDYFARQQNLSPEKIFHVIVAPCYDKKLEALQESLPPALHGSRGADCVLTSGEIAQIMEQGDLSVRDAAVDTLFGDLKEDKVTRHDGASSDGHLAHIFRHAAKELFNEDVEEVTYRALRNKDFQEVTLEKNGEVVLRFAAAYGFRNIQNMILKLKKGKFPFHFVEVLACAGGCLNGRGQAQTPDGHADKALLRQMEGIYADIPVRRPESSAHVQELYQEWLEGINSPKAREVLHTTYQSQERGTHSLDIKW
How it was run: as §1

[5] = molecular target: T5, A0A0A0MSG2|J3KNW4 and related entries (UniProt Q14192)
T5 sequence (whole entry): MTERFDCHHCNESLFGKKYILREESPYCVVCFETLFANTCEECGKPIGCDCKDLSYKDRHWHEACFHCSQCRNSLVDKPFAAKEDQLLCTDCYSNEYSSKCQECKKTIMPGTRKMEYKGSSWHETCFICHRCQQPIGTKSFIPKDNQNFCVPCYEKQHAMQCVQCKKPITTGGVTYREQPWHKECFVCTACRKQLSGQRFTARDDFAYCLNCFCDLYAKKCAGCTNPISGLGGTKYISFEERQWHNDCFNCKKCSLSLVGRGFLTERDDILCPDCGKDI
How it was run: as §1

Nc1ncnc2c1ncn2[C@@H]1O[C@H](COP(=O)(O)OP(=O)(O)NP(=O)(O)O)[C@@H](O)[C@H]1O [adenylyl imidodiphosphate]
NP40-soluble protein abundance ([1]; concentration: 6mM): 1.01 ± 0.02
NP40-soluble protein abundance ([1]; concentration: 8mM): 1.01 ± 0.015
NP40-soluble protein abundance ([1]; concentration: 10mM): 1.002 ± 0.0044
NP40-soluble protein abundance ([2]; concentration: 1mM): 0.984 ± 0.021
NP40-soluble protein abundance ([2]; concentration: 2mM): 0.959 ± 0.062
NP40-soluble protein abundance ([2]; concentration: 4mM): 0.978 ± 0.074
NP40-soluble protein abundance ([2]; concentration: 6mM): 0.966 ± 0.021
NP40-soluble protein abundance ([2]; concentration: 8mM): 0.949 ± 0.034
NP40-soluble protein abundance ([2]; concentration: 10mM): 0.941 ± 0.044
NP40-soluble protein abundance ([3]; concentration: 1mM): 1.01 ± 0.032
NP40-soluble protein abundance ([3]; concentration: 2mM): 1.09 ± 0.14
NP40-soluble protein abundance ([3]; concentration: 4mM): 1.04 ± 0.03
NP40-soluble protein abundance ([3]; concentration: 6mM): 1.04 ± 0.07
NP40-soluble protein abundance ([3]; concentration: 8mM): 1.03 ± 0.037
NP40-soluble protein abundance ([3]; concentration: 10mM): 1.06 ± 0.083
NP40-soluble protein abundance ([4]; concentration: 1mM): 0.991 ± 0.025
NP40-soluble protein abundance ([4]; concentration: 2mM): 0.993 ± 0.063
NP40-soluble protein abundance ([4]; concentration: 4mM): 0.975 ± 0.062
NP40-soluble protein abundance ([4]; concentration: 6mM): 1.01 ± 0.073
NP40-soluble protein abundance ([4]; concentration: 8mM): 1 ± 0.1
NP40-soluble protein abundance ([4]; concentration: 10mM): 0.987 ± 0.097
NP40-soluble protein abundance ([5]; concentration: 1mM): 0.991 ± 0.05
NP40-soluble protein abundance ([5]; concentration: 2mM): 0.988 ± 0.09
NP40-soluble protein abundance ([5]; concentration: 4mM): 1.02 ± 0.048
NP40-soluble protein abundance ([5]; concentration: 6mM): 0.966 ± 0.036
NP40-soluble protein abundance ([5]; concentration: 8mM): 0.979 ± 0.083
NP40-soluble protein abundance ([5]; concentration: 10mM): 0.947 ± 0.035
